Assay results published in patent publication US20250346512A1, “WATER TREATMENT METHOD, WATER TREATMENT APPARATUS, SLIME INHIBITOR, AND CLEANING METHOD” (ORGANO CORPORATION, priority 2022, published 2025).

Assay: Operation of EDI device with slime inhibitor added to the water to be treated

Compound: OCl [Sodium hypochlorite, sodium hypochlorite]
- Specific resistance of treated water at CT value = 100 mg · h/L as Cl2 (after the start of operation, CT value reached 100 mg·h/L as Cl2, Example 1: 0.75 mg/L as Cl2): 3 MΩ · cm
- Specific resistance of treated water at CT value = 0 mg · h/L as Cl2 (before the start of operation, EDI device of FIG. 5, RO-treated well water): 18 MΩ · cm
- Tendency of change in specific resistance of the treated water (during long operation of the EDI device): suddenly decreased early
